Values of other authors, collected in patent US20200390825A1, “PLURIPOTENT STEM CELL-DIRECTED MODEL OF AUTOSOMAL DOMINANT POLYCYSTIC KIDNEY DISEASE FOR DISEASE MECHANISM AND DRUG DISCOVERY” (University of Southern California, priority 2019, published 2020).
At least one structure is not confirmed: it was looked up by name or label, or the drawing left a doubt.

System: murine models of PKD
Conditions: reported; cited from earlier work

## CC1=C(O)C(=O)C=C2C1=CC=C1[C@@]2(C)CC[C@@]2(C)[C@@H]3C[C@](C)(C(=O)O)CC[C@]3(C)CC[C@]12C [Celastrol]
  Kidney function in murine models of PKD: maintains kidney function
